Measured values: article PMC6375729
No constants are given. Whether binding was seen depends on the method and setting. Binding seen in cells or lysates may run through a third protein. Here binding means that the protein was enriched with, or labelled near, the bait; the list need not be complete.

Amino acid sequences for entries named in this document (tags omitted). A change or cut given only in a name is not applied to a line headed by its entry.
UniProt P25440: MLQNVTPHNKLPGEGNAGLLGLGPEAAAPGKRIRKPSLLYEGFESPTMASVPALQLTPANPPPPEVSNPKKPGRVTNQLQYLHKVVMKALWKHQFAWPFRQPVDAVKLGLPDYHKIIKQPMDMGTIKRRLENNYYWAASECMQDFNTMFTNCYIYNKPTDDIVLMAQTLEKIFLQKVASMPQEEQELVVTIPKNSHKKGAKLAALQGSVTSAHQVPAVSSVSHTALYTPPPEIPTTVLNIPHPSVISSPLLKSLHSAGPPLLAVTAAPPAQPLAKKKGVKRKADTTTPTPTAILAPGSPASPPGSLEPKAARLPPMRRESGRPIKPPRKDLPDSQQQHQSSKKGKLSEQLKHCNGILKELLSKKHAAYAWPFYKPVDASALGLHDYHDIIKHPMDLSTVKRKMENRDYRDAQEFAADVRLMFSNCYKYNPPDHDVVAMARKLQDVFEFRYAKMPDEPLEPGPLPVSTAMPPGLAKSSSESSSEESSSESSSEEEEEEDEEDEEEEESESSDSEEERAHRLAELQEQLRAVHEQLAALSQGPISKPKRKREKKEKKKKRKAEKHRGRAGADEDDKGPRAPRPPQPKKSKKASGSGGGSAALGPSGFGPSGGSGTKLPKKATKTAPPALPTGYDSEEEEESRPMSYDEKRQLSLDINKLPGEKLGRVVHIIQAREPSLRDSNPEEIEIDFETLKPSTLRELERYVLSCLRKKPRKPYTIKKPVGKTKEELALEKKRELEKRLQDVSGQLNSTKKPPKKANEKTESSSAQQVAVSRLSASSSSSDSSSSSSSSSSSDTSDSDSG
UniProt Q15059: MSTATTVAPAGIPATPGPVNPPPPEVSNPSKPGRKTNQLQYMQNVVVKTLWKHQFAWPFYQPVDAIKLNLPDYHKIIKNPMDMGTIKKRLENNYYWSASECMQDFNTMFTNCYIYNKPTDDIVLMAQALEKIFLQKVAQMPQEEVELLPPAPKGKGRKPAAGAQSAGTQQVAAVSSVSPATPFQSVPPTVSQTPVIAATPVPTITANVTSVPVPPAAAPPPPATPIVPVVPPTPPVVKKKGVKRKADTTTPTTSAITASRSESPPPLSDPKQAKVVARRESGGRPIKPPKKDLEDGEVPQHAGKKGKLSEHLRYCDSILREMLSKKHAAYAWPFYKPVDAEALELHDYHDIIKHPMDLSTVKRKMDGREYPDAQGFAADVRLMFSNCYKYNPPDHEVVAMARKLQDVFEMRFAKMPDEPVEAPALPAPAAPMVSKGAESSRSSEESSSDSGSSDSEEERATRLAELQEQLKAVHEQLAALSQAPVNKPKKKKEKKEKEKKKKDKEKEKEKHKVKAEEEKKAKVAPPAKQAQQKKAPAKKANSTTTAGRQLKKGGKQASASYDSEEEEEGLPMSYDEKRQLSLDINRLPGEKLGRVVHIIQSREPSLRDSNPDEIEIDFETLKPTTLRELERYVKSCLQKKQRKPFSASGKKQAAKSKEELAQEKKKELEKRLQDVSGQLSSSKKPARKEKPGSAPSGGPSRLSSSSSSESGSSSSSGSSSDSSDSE
UniProt Q3UQU0: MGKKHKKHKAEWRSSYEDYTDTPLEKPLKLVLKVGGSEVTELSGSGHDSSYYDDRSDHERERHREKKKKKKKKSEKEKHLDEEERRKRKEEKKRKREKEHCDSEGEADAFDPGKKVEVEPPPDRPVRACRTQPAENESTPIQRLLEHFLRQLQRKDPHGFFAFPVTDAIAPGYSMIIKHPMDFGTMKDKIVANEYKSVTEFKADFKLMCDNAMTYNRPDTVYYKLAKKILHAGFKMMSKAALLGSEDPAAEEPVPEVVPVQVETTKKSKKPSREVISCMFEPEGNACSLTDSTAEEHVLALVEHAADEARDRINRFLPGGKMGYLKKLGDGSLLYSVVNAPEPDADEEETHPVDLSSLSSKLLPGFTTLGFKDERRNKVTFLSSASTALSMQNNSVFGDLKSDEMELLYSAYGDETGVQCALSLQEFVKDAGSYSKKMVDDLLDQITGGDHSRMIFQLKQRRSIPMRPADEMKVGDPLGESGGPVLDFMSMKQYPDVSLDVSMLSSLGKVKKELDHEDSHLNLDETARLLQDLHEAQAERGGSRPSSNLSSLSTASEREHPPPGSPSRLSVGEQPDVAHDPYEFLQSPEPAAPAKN
UniProt Q92922: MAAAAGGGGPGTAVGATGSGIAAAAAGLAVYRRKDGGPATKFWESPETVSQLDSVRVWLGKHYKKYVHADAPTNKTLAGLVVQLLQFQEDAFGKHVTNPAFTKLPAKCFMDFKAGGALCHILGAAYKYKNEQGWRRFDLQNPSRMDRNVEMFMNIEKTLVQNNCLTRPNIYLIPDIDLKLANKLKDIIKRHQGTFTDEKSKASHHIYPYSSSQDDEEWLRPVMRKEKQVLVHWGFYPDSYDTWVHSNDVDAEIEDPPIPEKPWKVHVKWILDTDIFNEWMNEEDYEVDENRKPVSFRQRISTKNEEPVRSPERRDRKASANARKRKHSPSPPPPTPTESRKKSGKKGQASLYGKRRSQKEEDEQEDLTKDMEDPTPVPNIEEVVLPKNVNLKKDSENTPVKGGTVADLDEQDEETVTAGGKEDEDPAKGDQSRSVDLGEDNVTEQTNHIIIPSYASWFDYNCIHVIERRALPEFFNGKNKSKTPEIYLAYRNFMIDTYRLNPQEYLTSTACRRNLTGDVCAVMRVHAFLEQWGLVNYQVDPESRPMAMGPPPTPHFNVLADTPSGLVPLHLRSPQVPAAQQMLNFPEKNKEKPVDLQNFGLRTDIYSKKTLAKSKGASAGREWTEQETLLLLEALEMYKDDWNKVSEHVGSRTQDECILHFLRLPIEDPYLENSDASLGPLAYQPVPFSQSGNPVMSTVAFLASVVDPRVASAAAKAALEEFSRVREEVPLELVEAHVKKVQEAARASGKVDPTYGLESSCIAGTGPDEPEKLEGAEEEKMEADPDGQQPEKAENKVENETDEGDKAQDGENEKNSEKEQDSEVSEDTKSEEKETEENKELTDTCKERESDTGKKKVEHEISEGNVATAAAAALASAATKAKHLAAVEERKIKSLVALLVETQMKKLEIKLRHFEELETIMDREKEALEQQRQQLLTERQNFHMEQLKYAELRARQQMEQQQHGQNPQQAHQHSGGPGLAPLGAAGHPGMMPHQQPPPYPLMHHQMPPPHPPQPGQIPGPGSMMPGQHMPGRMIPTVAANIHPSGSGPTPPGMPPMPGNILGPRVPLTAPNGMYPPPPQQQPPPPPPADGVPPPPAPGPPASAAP
UniProt Q9HCK8: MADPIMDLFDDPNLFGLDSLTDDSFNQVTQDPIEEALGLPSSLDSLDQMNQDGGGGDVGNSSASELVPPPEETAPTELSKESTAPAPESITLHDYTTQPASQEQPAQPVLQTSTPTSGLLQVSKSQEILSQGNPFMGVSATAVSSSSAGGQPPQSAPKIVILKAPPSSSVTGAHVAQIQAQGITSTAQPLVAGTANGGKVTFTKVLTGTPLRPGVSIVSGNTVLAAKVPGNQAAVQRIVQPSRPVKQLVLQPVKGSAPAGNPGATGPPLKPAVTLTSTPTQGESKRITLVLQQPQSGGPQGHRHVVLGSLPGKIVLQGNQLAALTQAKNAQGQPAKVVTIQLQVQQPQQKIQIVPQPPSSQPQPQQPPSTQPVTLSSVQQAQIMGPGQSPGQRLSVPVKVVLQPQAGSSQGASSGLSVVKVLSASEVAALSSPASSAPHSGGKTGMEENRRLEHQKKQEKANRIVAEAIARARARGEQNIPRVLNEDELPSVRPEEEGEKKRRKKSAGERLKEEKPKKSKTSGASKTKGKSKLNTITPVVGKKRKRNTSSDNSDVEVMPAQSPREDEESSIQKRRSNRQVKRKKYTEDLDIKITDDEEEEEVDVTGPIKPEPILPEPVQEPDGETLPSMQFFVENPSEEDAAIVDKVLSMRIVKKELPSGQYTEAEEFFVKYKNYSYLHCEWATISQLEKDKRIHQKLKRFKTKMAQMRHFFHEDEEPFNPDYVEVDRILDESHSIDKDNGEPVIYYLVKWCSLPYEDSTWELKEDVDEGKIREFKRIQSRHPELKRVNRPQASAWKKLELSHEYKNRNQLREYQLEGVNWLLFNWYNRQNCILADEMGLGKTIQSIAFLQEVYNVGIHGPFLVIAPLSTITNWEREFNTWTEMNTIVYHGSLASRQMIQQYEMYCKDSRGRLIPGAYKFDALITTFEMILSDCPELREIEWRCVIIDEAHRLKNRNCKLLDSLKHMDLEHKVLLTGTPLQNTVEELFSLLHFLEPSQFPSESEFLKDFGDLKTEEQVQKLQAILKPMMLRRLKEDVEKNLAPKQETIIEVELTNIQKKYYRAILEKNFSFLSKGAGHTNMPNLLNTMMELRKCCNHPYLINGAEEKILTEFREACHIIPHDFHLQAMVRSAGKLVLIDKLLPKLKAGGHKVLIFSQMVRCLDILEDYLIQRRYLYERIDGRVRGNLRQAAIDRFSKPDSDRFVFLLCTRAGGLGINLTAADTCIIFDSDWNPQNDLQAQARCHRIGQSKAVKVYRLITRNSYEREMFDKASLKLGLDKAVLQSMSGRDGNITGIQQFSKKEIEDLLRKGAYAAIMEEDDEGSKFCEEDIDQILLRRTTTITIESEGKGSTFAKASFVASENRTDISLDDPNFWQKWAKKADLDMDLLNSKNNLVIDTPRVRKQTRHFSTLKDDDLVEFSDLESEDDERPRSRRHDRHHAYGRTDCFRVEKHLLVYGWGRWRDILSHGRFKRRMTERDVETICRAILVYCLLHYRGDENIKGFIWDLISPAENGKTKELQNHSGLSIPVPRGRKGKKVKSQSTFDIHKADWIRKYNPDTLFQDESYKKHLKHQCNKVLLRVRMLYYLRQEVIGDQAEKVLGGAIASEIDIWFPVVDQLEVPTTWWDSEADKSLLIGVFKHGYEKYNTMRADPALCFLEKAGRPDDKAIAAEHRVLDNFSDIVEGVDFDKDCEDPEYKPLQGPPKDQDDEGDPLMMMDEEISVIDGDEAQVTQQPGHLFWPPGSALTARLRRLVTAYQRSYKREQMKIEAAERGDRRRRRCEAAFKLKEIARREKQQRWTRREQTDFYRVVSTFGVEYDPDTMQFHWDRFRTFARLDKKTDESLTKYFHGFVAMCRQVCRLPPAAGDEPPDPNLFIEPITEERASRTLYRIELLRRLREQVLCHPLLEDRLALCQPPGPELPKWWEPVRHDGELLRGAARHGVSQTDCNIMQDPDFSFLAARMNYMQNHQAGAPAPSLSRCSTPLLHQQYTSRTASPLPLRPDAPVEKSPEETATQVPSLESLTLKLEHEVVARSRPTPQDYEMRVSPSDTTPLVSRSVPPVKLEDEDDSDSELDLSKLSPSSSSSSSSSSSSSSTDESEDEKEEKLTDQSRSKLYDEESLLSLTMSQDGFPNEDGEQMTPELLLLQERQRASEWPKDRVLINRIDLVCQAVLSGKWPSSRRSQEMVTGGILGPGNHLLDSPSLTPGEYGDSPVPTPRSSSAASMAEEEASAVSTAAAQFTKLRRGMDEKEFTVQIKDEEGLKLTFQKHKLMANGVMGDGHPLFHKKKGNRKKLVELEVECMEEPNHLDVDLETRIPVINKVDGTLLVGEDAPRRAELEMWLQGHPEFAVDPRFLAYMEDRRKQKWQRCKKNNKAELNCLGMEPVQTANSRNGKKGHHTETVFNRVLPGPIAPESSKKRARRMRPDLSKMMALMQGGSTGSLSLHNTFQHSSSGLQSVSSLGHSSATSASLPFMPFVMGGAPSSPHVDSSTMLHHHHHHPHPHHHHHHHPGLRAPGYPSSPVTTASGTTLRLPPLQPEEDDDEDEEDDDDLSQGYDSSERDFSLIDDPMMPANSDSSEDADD
UniProt Q9H8M2: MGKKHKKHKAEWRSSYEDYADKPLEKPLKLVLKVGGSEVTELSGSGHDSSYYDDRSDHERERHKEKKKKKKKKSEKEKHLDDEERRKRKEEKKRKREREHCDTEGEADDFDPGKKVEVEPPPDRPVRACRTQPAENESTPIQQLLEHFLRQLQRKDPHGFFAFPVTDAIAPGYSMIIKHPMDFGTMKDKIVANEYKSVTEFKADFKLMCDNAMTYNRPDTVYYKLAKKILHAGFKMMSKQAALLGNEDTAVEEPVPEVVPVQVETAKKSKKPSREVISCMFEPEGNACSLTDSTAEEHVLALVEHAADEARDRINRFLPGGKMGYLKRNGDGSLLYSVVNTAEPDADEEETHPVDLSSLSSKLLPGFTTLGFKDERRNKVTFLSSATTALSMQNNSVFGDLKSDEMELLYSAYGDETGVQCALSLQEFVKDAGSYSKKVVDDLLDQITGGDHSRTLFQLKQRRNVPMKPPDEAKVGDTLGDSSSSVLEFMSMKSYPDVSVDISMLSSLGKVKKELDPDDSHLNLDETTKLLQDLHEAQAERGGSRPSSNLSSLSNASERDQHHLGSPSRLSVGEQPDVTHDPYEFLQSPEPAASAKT

Columns and labels:
3×FLAG-BRD2 (human) = 3×FLAG-BRD2 (human) (UniProt P25440); experiment: affinity purification with mass spectrometry; 3×FLAG-BET baits in Flp-In T-REx HEK293, anti-FLAG M2 beads, chromatin-optimised lysis (100 mM KCl, sonication, benzonase); cells untreated or with 500 nM JQ1 for 10, 60 or 240 min; SAINT FDR ≤1%
3×FLAG-BRD3 (human) = 3×FLAG-BRD3 (human) (UniProt Q15059); experiment: as above
[1] = target: 3xFLAG-BRD9 full length (not stated (UniProt entry of the human protein printed; a mouse Brd9 cDNA is listed)) (UniProt Q3UQU0); experiment: affinity purification with mass spectrometry; 3xFLAG-tagged BRD9 full length and deletion constructs expressed in HEK293 cells, anti-FLAG M2 beads, endogenous preys, SAINT FDR ≤ 1%
[2] = target: 3xFLAG-BRD9 1-100 (not stated (UniProt entry of the human protein printed; a mouse Brd9 cDNA is listed)) (UniProt Q3UQU0); experiment: as above
[3] = target: 3xFLAG-BRD9 267-504 (not stated (UniProt entry of the human protein printed; a mouse Brd9 cDNA is listed)) (UniProt Q3UQU0); experiment: as above

| Substance | binding (3×FLAG-BRD2 (human)) | binding (3×FLAG-BRD3 (human)) | also measured |
| --- | --- | --- | --- |
| BRD2 (endogenous) (from UniProt P25440 1-801) |  |  | binding [1]: binds; binding [2]: binds |
| WHSC1 (endogenous) (from UniProt O96028 1-1365) |  | binds |  |
| SMARCC1 (endogenous) (from UniProt Q92922 1-1105) |  |  | binding [3]: binds |
| CHD8 (from UniProt Q9HCK8 1-2581) | binds | binds |  |
| SMARCD1 (endogenous) (from UniProt Q96GM5 1-515) |  |  | binding [3]: binds |

Second part, led by results:

| binding (3×FLAG-BRD2 (human)) | binding (3×FLAG-BRD3 (human)) | Substance | also measured |
| --- | --- | --- | --- |
| binds |  | BRD9 (endogenous) (from UniProt Q9H8M2 1-597) |  |
| binds | binds | WHSC1L1 (endogenous) (from UniProt Q9BZ95 1-1437) |  |
